Assay results: the supplement of paper PMC12823440, “Inhibitors supercharge kinase turnover through native proteolytic circuits” (Nature, 2025)
Structures can show the parent of a compound that is named as a salt. The list shows a part of the results. Hit calls seldom repeat between salt and free forms of one compound.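 In K562 cells expressing nanoluciferase-fused kinases, luminescence was recorded at 4 h intervals between 2 and 18 h, normalized as percent of control with DMSO at 100% and a positive control at 0%. A significant (2 sigma) signal drop marks a time point as decreased. The authors' rule for a hit is not shown and takes in more than the number of time points.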

By UniProt entry, the sequences of proteins in these tests, tags left out. Where a name states a change or a piece, a line headed by the entry shows the natural chain unless it says otherwise.
UniProt O75460: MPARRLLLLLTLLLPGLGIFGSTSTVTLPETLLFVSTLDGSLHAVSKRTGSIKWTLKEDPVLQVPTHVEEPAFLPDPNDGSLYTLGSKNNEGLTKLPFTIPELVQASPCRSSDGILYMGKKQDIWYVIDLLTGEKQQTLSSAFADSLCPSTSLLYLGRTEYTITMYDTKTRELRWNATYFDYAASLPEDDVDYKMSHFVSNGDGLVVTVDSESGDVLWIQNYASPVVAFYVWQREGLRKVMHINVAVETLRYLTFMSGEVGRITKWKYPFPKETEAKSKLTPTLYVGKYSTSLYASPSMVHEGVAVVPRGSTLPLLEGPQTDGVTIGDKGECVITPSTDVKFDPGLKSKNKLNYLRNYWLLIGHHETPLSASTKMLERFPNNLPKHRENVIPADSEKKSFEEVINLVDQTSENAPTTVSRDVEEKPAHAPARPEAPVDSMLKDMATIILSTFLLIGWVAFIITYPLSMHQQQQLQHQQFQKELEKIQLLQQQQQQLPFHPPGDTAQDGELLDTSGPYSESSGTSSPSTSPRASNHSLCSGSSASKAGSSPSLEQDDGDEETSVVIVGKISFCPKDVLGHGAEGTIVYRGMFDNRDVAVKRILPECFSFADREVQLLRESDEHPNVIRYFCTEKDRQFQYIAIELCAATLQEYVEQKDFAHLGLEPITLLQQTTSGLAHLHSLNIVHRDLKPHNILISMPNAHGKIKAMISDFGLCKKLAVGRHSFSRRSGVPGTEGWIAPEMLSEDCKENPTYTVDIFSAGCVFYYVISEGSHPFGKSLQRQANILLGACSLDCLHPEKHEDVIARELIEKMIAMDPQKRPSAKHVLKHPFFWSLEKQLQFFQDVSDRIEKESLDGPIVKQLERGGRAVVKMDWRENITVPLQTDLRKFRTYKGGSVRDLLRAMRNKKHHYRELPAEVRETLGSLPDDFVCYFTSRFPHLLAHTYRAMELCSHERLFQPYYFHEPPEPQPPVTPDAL
UniProt P11362, whole entry, looked up: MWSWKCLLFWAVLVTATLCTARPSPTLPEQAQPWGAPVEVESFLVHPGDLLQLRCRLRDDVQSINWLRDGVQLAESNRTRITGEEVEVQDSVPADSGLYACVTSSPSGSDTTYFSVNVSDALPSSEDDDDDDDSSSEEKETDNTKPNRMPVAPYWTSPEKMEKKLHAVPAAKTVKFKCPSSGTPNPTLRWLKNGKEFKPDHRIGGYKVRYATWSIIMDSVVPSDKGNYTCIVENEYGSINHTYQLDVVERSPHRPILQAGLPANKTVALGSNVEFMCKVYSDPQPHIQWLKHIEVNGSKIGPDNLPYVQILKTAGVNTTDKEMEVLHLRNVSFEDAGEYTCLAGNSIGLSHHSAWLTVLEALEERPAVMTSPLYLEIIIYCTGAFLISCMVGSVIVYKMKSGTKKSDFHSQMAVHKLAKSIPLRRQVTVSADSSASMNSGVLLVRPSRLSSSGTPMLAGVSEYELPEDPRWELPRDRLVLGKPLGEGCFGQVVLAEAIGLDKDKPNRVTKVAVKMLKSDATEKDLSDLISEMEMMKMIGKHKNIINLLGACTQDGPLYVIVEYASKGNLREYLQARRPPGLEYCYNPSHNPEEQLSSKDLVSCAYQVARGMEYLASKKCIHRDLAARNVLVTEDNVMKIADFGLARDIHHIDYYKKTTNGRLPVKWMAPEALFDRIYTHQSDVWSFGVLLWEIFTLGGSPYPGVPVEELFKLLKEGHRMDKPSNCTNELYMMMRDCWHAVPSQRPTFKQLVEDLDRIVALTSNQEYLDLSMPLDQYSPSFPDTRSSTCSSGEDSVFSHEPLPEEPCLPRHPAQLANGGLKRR
UniProt P21802, whole entry, looked up: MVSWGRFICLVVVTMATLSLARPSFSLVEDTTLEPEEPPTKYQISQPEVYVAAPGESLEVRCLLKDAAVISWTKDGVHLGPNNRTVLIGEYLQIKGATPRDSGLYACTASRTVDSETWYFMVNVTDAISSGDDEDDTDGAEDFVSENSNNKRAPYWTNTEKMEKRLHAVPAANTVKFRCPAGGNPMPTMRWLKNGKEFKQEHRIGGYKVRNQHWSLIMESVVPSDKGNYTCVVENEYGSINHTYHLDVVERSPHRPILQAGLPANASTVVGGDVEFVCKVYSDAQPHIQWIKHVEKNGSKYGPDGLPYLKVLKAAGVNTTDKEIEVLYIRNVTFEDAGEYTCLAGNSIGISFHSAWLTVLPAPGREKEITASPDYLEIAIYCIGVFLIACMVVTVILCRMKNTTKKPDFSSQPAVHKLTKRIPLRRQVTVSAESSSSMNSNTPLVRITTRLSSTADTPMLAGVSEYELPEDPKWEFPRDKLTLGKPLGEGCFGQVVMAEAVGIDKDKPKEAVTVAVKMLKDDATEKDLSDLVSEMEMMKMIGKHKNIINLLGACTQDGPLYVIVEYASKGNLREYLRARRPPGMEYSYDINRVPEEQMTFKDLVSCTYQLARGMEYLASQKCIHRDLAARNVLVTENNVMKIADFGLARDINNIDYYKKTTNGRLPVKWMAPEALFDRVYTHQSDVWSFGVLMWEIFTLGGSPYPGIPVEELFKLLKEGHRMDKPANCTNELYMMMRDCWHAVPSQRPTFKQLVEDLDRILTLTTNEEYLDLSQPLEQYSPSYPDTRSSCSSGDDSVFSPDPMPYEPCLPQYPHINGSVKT
UniProt P22607, whole entry, looked up: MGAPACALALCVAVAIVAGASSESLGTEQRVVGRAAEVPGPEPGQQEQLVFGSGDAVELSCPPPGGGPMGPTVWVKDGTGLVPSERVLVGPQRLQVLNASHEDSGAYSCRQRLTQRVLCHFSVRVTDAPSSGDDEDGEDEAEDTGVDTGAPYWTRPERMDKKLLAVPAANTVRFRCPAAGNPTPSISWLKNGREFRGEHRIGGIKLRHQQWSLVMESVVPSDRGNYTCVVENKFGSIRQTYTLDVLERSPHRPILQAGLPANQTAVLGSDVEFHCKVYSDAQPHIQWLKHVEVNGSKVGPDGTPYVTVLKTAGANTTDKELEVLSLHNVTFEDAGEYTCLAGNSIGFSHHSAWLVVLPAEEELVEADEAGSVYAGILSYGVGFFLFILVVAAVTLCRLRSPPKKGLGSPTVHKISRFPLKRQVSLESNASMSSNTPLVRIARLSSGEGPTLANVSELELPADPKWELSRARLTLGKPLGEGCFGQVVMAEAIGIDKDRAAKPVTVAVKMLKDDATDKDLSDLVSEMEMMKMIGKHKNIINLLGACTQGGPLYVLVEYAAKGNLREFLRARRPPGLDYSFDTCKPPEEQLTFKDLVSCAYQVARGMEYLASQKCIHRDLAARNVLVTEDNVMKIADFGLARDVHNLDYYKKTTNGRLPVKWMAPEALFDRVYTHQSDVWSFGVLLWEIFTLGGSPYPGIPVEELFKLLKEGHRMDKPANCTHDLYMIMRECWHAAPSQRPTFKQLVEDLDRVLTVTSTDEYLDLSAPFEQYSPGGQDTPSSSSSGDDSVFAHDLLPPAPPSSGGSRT
UniProt P36888, whole entry: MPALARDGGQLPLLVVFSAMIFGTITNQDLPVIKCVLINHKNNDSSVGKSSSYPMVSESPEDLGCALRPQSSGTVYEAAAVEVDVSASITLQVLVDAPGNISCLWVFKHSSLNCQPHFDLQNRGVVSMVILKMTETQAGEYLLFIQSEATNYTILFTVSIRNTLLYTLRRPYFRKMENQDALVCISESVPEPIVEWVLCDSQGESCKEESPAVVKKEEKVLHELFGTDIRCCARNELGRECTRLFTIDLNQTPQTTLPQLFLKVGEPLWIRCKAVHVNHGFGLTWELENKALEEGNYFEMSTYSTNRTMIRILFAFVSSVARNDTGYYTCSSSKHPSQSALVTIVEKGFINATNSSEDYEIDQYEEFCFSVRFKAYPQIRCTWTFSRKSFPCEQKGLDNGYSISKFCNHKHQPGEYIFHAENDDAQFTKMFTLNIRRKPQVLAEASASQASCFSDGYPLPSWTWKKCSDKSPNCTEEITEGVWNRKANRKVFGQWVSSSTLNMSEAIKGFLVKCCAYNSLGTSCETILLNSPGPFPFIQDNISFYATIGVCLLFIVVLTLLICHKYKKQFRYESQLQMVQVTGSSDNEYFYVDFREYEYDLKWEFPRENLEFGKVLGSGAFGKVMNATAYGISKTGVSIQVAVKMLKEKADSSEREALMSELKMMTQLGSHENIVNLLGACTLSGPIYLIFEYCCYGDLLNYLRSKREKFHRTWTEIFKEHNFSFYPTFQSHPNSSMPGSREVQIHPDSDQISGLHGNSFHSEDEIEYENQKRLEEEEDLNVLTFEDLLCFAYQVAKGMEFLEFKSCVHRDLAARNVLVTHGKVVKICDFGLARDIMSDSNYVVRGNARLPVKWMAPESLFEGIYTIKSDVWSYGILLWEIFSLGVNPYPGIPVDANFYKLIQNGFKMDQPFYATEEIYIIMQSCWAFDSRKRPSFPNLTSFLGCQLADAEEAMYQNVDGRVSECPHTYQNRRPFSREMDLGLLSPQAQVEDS
UniProt P06241, whole entry, looked up: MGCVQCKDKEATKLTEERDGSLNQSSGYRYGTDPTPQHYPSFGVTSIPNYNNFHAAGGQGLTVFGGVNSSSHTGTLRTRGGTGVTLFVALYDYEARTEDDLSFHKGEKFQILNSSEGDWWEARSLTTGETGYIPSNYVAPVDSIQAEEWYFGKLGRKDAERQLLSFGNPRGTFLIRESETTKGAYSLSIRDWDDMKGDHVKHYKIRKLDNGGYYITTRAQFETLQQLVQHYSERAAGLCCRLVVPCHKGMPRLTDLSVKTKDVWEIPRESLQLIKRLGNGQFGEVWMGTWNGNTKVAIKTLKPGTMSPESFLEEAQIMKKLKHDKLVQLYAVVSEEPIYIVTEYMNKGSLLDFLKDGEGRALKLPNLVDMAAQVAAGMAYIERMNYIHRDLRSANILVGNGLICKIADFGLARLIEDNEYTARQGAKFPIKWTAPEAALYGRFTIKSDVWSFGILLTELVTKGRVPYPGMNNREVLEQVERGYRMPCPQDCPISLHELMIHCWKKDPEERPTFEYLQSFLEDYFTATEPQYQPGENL
UniProt P14616: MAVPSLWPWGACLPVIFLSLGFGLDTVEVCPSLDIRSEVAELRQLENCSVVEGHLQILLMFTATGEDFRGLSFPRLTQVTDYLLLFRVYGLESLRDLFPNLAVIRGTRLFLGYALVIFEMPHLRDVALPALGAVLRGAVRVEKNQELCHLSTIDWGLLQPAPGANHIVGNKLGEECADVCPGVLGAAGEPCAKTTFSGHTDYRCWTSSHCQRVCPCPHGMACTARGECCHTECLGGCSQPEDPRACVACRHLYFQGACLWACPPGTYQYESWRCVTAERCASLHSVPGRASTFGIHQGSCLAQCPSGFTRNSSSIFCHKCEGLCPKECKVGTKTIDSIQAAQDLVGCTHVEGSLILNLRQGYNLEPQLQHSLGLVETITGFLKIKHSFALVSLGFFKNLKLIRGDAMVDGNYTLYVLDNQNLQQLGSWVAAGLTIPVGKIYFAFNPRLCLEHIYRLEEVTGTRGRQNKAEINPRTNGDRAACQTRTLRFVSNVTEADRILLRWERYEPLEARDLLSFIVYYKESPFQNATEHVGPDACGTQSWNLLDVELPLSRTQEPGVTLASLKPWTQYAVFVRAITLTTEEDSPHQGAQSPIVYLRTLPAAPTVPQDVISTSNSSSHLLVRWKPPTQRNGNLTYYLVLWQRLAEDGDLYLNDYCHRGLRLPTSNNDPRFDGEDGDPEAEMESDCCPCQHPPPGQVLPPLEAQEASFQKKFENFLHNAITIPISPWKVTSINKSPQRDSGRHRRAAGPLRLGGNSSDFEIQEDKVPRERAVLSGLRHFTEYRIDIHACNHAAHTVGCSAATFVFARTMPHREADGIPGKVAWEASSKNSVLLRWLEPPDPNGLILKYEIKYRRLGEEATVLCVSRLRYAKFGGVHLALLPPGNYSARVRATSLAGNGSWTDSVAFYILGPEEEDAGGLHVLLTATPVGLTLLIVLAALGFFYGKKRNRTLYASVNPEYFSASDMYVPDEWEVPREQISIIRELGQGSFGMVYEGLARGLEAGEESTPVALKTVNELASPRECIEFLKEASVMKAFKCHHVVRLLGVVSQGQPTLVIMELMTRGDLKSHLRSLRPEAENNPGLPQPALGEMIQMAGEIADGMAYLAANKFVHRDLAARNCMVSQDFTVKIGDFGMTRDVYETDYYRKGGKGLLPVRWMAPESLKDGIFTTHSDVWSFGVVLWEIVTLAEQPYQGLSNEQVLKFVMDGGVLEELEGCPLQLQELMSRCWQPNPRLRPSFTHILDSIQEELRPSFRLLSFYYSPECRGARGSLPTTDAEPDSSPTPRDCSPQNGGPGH

Experiments:
Test in all cases: kinase-Nluc reporter destabilization hit call (1 = scored as downregulated) (binary); higher = compound decreases kinase abundance
Conditions in all cases: K562; 2-18 h
EGFR = EGFR (UniProt P00533)
EGFR_G719S = EGFR_G719S (UniProt P00533)
EGFR_G719S_T790M = EGFR_G719S_T790M (UniProt P00533)
EGFR_L718V = EGFR_L718V (UniProt P00533)
EGFR_L858R = EGFR_L858R (UniProt P00533)
EGFR_L861Q = EGFR_L861Q (UniProt P00533)
EGFR_T790M = EGFR_T790M (UniProt P00533)
EPHA2 = EPHA2 (UniProt P29317)
ERBB3 = ERBB3 (UniProt P21860)
[1] = target: ERBB4_R711C (clone: ERBB4_mut) (UniProt Q15303)
ERN1 = ERN1 (UniProt O75460)
FGFR1 = FGFR1 (UniProt P11362)
FGFR2 = FGFR2 (UniProt P21802)
FGFR3 = FGFR3 (UniProt P22607)
FGR = FGR (UniProt P09769)
FLT3 = FLT3 (UniProt P36888)
FYN = FYN (UniProt P06241)
GSK3A = GSK3A (UniProt P49840)
HER2 = HER2 (UniProt P04626)
INSRR = INSRR (UniProt P14616)

Measured: kinase-Nluc reporter destabilization hit call

O=C(Nc1cccc(Nc2ncc(Br)c(NCCc3cnc[nH]3)n2)c1)N1CCCC1 (10 µM)
inactive: EGFR 0 | EGFR_G719S 0 | EGFR_G719S_T790M 0 | EGFR_L718V 0 | EGFR_L858R 0 | EGFR_L861Q 0 | EGFR_T790M 0 | EPHA2 = 0 | ERBB3 = 0 | [1] 0 | ERN1 = 0 | FGFR1 = 0 | FGFR2 = 0 | FGFR3 = 0 | FGR 0 | FLT3 = 0 | FYN 0 | GSK3A 0 | HER2 = 0 | INSRR 0

C[C@@H]1O[C@@H](O[C@@H]2[C@@H](O)[C@H](OCCc3ccc(O)c(O)c3)O[C@H](CO)[C@H]2OC(=O)/C=C/c2ccc(O)c(O)c2)[C@H](O)[C@H](O)[C@H]1O [Verbascoside] (10 µM)
inactive: EGFR 0 | EGFR_G719S 0 | EGFR_G719S_T790M 0 | EGFR_L718V 0 | EGFR_L858R 0 | EGFR_L861Q 0 | EGFR_T790M 0 | EPHA2 = 0 | ERBB3 = 0 | [1] 0 | ERN1 = 0 | FGFR1 = 0 | FGFR2 = 0 | FGFR3 = 0 | FGR 0 | FLT3 = 0 | FYN 0 | GSK3A 0 | HER2 = 0 | INSRR 0

O=[N+]([O-])c1ccc2c(c1)S(=O)(=O)C=C2 [Stattic] (2.5 µM)
inactive: EGFR 0 | EGFR_G719S 0 | EGFR_G719S_T790M 0 | EGFR_L718V 0 | EGFR_L858R 0 | EGFR_L861Q 0 | EGFR_T790M 0 | EPHA2 = 0 | ERBB3 = 0 | [1] 0 | ERN1 = 0 | FGFR1 = 0 | FGFR2 = 0 | FGFR3 = 0 | FGR 0 | FLT3 = 0 | FYN 0 | GSK3A 0 | HER2 = 0 | INSRR 0

O=C1O[C@H]([C@@H](O)CO)C(O)=C1OP(=O)(O)O [2-Phospho-L-ascorbic acid (trisodium)] (10 µM)
inactive: EGFR 0 | EGFR_G719S 0 | EGFR_G719S_T790M 0 | EGFR_L718V 0 | EGFR_L858R 0 | EGFR_L861Q 0 | EGFR_T790M 0 | EPHA2 = 0 | ERBB3 = 0 | [1] 0 | ERN1 = 0 | FGFR1 = 0 | FGFR2 = 0 | FGFR3 = 0 | FGR 0 | FLT3 = 0 | FYN 0 | GSK3A 0 | HER2 = 0 | INSRR 0

CC(C)N1CCN(c2ccc(Nc3ncc4cc5n(c4n3)C3(CCCCC3)CNC5=O)nc2)CC1 [Lerociclib (dihydrochloride)] (2 µM)
inactive: EGFR 0 | EGFR_G719S 0 | EGFR_G719S_T790M 0 | EGFR_L718V 0 | EGFR_L858R 0 | EGFR_L861Q 0 | EGFR_T790M 0 | EPHA2 = 0 | ERBB3 = 0 | [1] 0 | ERN1 = 0 | FGFR1 = 0 | FGFR2 = 0 | FGFR3 = 0 | FGR 0 | FLT3 = 0 | FYN 0 | GSK3A 0 | HER2 = 0 | INSRR 0

CC1(C)Cc2c(sc(NC(=S)NC(=O)c3ccccc3)c2C(=O)O)CO1 (10 µM)
inactive: EGFR 0 | EGFR_G719S 0 | EGFR_G719S_T790M 0 | EGFR_L718V 0 | EGFR_L858R 0 | EGFR_L861Q 0 | EGFR_T790M 0 | EPHA2 = 0 | ERBB3 = 0 | [1] 0 | ERN1 = 0 | FGFR1 = 0 | FGFR2 = 0 | FGFR3 = 0 | FGR 0 | FLT3 = 0 | FYN 0 | GSK3A 0 | HER2 = 0 | INSRR 0

CN(C)S(=O)(=O)c1ccc2c(c1)/C(=C/c1cc3c([nH]1)CCCC3)C(=O)N2 (2.5 µM)
inactive: EGFR 0 | EGFR_G719S 0 | EGFR_G719S_T790M 0 | EGFR_L718V 0 | EGFR_L858R 0 | EGFR_L861Q 0 | EGFR_T790M 0 | EPHA2 = 0 | ERBB3 = 0 | [1] 0 | ERN1 = 0 | FGFR1 = 0 | FGFR2 = 0 | FGFR3 = 0 | FGR 0 | FLT3 = 0 | FYN 0 | GSK3A 0 | HER2 = 0 | INSRR 0

2 compounds picked at random from those above:
CN(C)S(=O)(=O)c1ccc2c(c1)/C(=C/c1cc3c([nH]1)CCCC3)C(=O)N2 (2.5 µM)
inactive: EGFR 0 | EGFR_G719S 0 | EGFR_G719S_T790M 0 | EGFR_L718V 0 | EGFR_L858R 0 | EGFR_L861Q 0 | EGFR_T790M 0 | EPHA2 = 0 | ERBB3 = 0 | [1] 0 | ERN1 = 0 | FGFR1 = 0 | FGFR2 = 0 | FGFR3 = 0 | FGR 0 | FLT3 = 0 | FYN 0 | GSK3A 0 | HER2 = 0 | INSRR 0

O=[N+]([O-])c1ccc2c(c1)S(=O)(=O)C=C2 [Stattic] (2.5 µM)
inactive: EGFR 0 | EGFR_G719S 0 | EGFR_G719S_T790M 0 | EGFR_L718V 0 | EGFR_L858R 0 | EGFR_L861Q 0 | EGFR_T790M 0 | EPHA2 = 0 | ERBB3 = 0 | [1] 0 | ERN1 = 0 | FGFR1 = 0 | FGFR2 = 0 | FGFR3 = 0 | FGR 0 | FLT3 = 0 | FYN 0 | GSK3A 0 | HER2 = 0 | INSRR 0

Going on with the list.

CCn1c(=O)c(-c2cc[nH]n2)cc2c(C)nc(N)nc21 [Voxtalisib] (10 µM)
inactive: EGFR 0 | EGFR_G719S 0 | EGFR_G719S_T790M 0 | EGFR_L718V 0 | EGFR_L858R 0 | EGFR_L861Q 0 | EGFR_T790M 0 | EPHA2 = 0 | ERBB3 = 0 | [1] 0 | ERN1 = 0 | FGFR1 = 0 | FGFR2 = 0 | FGFR3 = 0 | FGR 0 | FLT3 = 0 | FYN 0 | GSK3A 0 | HER2 = 0 | INSRR 0

C[C@@H]1CCNC(=O)c2cc3ccc(C(=O)Nc4nc5ccccc5n4CCCN(C)C)cc3n21 (10 µM)
inactive: EGFR 0 | EGFR_G719S 0 | EGFR_G719S_T790M 0 | EGFR_L718V 0 | EGFR_L858R 0 | EGFR_L861Q 0 | EGFR_T790M 0 | EPHA2 = 0 | ERBB3 = 0 | [1] 0 | ERN1 = 0 | FGFR1 = 0 | FGFR2 = 0 | FGFR3 = 0 | FGR 0 | FLT3 = 0 | FYN 0 | GSK3A 0 | HER2 = 0 | INSRR 0

FC(F)(F)c1ccc(/C=C/c2nc(COc3ccc(CCCCn4ccnn4)cc3)co2)cc1 [Mubritinib] (10 µM)
inactive: EGFR 0 | EGFR_G719S 0 | EGFR_G719S_T790M 0 | EGFR_L718V 0 | EGFR_L858R 0 | EGFR_L861Q 0 | EGFR_T790M 0 | EPHA2 = 0 | ERBB3 = 0 | [1] 0 | ERN1 = 0 | FGFR1 = 0 | FGFR2 = 0 | FGFR3 = 0 | FGR 0 | FLT3 = 0 | FYN 0 | GSK3A 0 | HER2 = 0 | INSRR 0

CN(c1ccc(NC(=O)Nc2ccc(OC(F)(F)F)cc2)cc1)c1ccnc(Nc2cccc(S(N)(=O)=O)c2)n1 (2.5 µM)
inactive: EGFR 0 | EGFR_G719S 0 | EGFR_G719S_T790M 0 | EGFR_L718V 0 | EGFR_L858R 0 | EGFR_L861Q 0 | EGFR_T790M 0 | EPHA2 = 0 | ERBB3 = 0 | [1] 0 | ERN1 = 0 | FGFR1 = 0 | FGFR2 = 0 | FGFR3 = 0 | FGR 0 | FLT3 = 0 | FYN 0 | GSK3A 0 | HER2 = 0 | INSRR 0

CC(C)(O)[C@H]1CC[C@H](Nc2ccc3ncc(-c4cccc(C(F)(F)F)c4)n3n2)CC1 (10 µM)
inactive: EGFR 0 | EGFR_G719S 0 | EGFR_G719S_T790M 0 | EGFR_L718V 0 | EGFR_L858R 0 | EGFR_L861Q 0 | EGFR_T790M 0 | EPHA2 = 0 | ERBB3 = 0 | [1] 0 | ERN1 = 0 | FGFR1 = 0 | FGFR2 = 0 | FGFR3 = 0 | FGR 0 | FLT3 = 0 | FYN 0 | GSK3A 0 | HER2 = 0 | INSRR 0

NC(=O)c1cnc2[nH]ccc2c1N[C@@H]1[C@@H]2CC3C[C@H]1C[C@@](O)(C3)C2 [Peficitinib] (10 µM)
inactive: EGFR 0 | EGFR_G719S 0 | EGFR_G719S_T790M 0 | EGFR_L718V 0 | EGFR_L858R 0 | EGFR_L861Q 0 | EGFR_T790M 0 | EPHA2 = 0 | ERBB3 = 0 | [1] 0 | ERN1 = 0 | FGFR1 = 0 | FGFR2 = 0 | FGFR3 = 0 | FGR 0 | FLT3 = 0 | FYN 0 | GSK3A 0 | HER2 = 0 | INSRR 0

CCc1cncnc1N1CCN(Cc2nc3ccc(C(F)(F)F)cc3[nH]2)CC1 (10 µM)
inactive: EGFR 0 | EGFR_G719S 0 | EGFR_G719S_T790M 0 | EGFR_L718V 0 | EGFR_L858R 0 | EGFR_L861Q 0 | EGFR_T790M 0 | EPHA2 = 0 | ERBB3 = 0 | [1] 0 | ERN1 = 0 | FGFR1 = 0 | FGFR2 = 0 | FGFR3 = 0 | FGR 0 | FLT3 = 0 | FYN 0 | GSK3A 0 | HER2 = 0 | INSRR 0

COc1cc(/C=C/C(=O)N2CCC=CC2=O)cc(OC)c1OC [Piperlongumine] (2.5 µM)
inactive: EGFR 0 | EGFR_G719S 0 | EGFR_G719S_T790M 0 | EGFR_L718V 0 | EGFR_L858R 0 | EGFR_L861Q 0 | EGFR_T790M 0 | EPHA2 = 0 | ERBB3 = 0 | [1] 0 | ERN1 = 0 | FGFR1 = 0 | FGFR2 = 0 | FGFR3 = 0 | FGR 0 | FLT3 = 0 | FYN 0 | GSK3A 0 | HER2 = 0 | INSRR 0

Cc1ccn2c(C(=O)C(=O)c3ccccc3)c(-c3ccccc3)nc2c1 (10 µM)
inactive: EGFR 0 | EGFR_G719S 0 | EGFR_G719S_T790M 0 | EGFR_L718V 0 | EGFR_L858R 0 | EGFR_L861Q 0 | EGFR_T790M 0 | EPHA2 = 0 | ERBB3 = 0 | [1] 0 | ERN1 = 0 | FGFR1 = 0 | FGFR2 = 0 | FGFR3 = 0 | FGR 0 | FLT3 = 0 | FYN 0 | GSK3A 0 | HER2 = 0 | INSRR 0
